Laboratory results from article PMC6584639.
These are yes or no findings as the source states them, for the method shown. Where a sequence is shown, tags or fusion partners need not be part of it.

T1: KIF1CΔS-GFP (6His-KIF1CΔ623–825-GFP) (human) (UniProt O43896)
T1 sequence: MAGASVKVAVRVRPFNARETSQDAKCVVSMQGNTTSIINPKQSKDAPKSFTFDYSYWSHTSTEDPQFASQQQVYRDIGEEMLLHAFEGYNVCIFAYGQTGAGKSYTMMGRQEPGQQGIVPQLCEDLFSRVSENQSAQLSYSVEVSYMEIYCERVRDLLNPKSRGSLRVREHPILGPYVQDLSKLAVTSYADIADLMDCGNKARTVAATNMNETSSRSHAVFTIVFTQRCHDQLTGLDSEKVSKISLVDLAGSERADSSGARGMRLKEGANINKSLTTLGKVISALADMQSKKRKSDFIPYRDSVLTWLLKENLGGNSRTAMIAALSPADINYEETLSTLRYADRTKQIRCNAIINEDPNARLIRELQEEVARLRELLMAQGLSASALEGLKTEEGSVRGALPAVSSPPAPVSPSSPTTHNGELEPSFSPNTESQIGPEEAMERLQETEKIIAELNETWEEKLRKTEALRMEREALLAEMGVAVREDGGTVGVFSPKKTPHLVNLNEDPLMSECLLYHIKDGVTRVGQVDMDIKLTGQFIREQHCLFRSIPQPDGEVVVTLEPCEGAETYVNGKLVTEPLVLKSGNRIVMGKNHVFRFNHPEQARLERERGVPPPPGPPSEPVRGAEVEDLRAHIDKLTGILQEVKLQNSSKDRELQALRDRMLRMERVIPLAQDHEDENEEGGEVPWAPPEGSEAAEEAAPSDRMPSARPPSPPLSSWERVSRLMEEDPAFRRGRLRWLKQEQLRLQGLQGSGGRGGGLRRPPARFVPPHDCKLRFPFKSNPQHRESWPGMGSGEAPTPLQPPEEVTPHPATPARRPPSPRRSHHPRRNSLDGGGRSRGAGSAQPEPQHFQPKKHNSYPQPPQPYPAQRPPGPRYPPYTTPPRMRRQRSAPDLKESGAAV


Molecular target: T1, KIF1CΔS-GFP (6His-KIF1CΔ623–825-GFP) (human)
Assay: single-molecule co-transport on microtubules (two-colour TIRF); KIF1C-GFP or KIF1CΔS-GFP incubated with Hook3-SNAPf647 or 647SNAPf-FERM, then imaged on microtubules, 25 °C; both purified

binding | Binder
no binding | SNAPf26-PTPN21(1–381)-6His labelled with Alexa647 (domain or fragment, UniProt Q16825 1-381, SNAP-Surface Alexa Fluor 647 on the SNAPf tag (labelling ratio 0.4)) MPLPFGLKLKRTRRYTVSSKSCLVARIQLLNNEFVEFTLSVESTGQESLEAVAQRLELREVTYFSLWYYNKQNQRRWVDLEKPLKKQLDKYALEPTVYFGVVFYVPSVSQLQQEITRYQYYLQLKKDILEGSIPCTLEQAIQLAGLAVQADFGDFDQYESQDFLQKFALFPVGWLQDEKVLEEATQKVALLHQKYRGLTAPDAEMLYMQEVERMDGYGEESYPAKDSQGSDISIGACLEGIFVKHKNGRHPVVFRWHDIANMSHNKSFFALELANKEETIQFQTEDMETAKYIWRLCVARHKFYRLNQCNLQTQTVTVNPIRRRSSSRMSLPKPQPYVMPPPPQLHYNGHYTEPYASSQDNLFVPNQNGYYCHSQTSLDRA
no binding | recombinant human Hook3 with a C-terminal SNAP-tag, labelled with Alexa647 (protein, UniProt Q86VS8 1-718, SNAP-Surface Alexa Fluor 647 on the SNAPf tag (labelling ratio 1.05)) MFSVESLERAELCESLLTWIQTFNVDAPCQTVEDLTNGVVMAQVLQKIDPAYFDENWLNRIKTEVGDNWRLKISNLKKILKGILDYNHEILGQQINDFTLPDVNLIGEHSDAAELGRMLQLILGCAVNCEQKQEYIQAIMMMEESVQHVVMTAIQELMSKESPVSAGNDAYVDLDRQLKKTTEELNEALSAKEEIAQRCHELDMQVAALQEEKSSLLAENQVLMERLNQSDSIEDPNSPAGRRHLQLQTQLEQLQEETFRLEAAKDDYRIRCEELEKEISELRQQNDELTTLADEAQSLKDEIDVLRHSSDKVSKLEGQVESYKKKLEDLGDLRRQVKLLEEKNTMYMQNTVSLEEELRKANAARSQLETYKRQVVELQNRLSEESKKADKLDFEYKRLKEKVDSLQKEKDRLRTERDSLKETIEELRCVQAQEGQLTTQGLMPLGSQESSDSLAAEIVTPEIREKLIRLQHENKMLKLNQEGSDNEKIALLQSLLDDANLRKNELETENRLVNQRLLEVQSQVEELQKSLQDQGSKAEDSVLLKKKLEEHLEKLHEANNELQKKRAIIEDLEPRFNNSSLKIEELQEALRKKEEEMKQMEERYKKYLEKAKSVIRTLDPKQNQGAAPEIQALKNQLQERDRLFHSLEKEYEKTKSQREMEEKYIVSAWYNMGMTLHKKAAEDRLASTGSGQSFLARQRQATSSRRSYPGHVQPATAR
